Experimental data taken from publication PMC6802643.
No constants are given. Whether binding was seen depends on the method and setting. Binding seen in cells or lysates may run through a third protein. Some entries that bind do so weakly or less than the wild type. Each block holds one molecule with its values, some of them ahead of it.

Sequences of proteins named here, by UniProt entry; tags and fusion partners are left off.
UniProt Q8R4B8: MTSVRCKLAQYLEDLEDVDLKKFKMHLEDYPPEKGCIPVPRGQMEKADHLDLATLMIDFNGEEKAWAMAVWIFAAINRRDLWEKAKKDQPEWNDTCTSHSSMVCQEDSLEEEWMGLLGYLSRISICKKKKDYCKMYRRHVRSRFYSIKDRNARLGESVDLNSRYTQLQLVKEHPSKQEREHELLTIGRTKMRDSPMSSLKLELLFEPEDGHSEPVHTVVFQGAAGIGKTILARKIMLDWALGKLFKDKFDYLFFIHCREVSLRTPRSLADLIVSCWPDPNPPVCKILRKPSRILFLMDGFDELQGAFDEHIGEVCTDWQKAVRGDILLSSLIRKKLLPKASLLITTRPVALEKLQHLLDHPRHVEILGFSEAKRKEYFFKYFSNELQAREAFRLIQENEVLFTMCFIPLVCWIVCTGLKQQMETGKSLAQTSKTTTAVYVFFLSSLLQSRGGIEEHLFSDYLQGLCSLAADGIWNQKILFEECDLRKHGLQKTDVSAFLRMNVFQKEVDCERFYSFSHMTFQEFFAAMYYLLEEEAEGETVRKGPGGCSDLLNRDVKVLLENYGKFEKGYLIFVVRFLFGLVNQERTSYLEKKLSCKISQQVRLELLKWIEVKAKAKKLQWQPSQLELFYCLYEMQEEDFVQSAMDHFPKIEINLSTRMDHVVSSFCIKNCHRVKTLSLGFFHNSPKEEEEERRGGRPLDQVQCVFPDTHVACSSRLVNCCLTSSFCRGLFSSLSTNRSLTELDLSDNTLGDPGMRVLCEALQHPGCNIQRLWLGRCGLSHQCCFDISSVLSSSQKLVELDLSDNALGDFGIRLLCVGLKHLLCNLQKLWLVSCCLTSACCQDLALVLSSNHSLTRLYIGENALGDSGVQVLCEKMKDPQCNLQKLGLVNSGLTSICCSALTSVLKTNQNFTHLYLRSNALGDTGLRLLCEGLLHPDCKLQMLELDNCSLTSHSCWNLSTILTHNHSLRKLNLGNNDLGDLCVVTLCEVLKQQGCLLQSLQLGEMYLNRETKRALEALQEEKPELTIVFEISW

What was measured:
[1] = biological target: T1, Kir6.1, pore-forming subunit of the K-ATP channel (endogenous, mouse BMDMs) (mouse (endogenous in BMDMs)) (UniProt P97794); test: co-IP; endogenous proteins in lysates of BMDMs from WT and Kir6.1 KO mice (ATP-stimulated cells among them); 2 ug of antibodies (ASC, NLRP3 or Kir6.1) overnight at 4 °C, then protein A/G plus agarose beads 2-4 h; lysis buffer 50 mM Tris-HCl pH 7.4, 1% NP-40, 150 mM NaCl; detection by immunoblotting
T1 sequence: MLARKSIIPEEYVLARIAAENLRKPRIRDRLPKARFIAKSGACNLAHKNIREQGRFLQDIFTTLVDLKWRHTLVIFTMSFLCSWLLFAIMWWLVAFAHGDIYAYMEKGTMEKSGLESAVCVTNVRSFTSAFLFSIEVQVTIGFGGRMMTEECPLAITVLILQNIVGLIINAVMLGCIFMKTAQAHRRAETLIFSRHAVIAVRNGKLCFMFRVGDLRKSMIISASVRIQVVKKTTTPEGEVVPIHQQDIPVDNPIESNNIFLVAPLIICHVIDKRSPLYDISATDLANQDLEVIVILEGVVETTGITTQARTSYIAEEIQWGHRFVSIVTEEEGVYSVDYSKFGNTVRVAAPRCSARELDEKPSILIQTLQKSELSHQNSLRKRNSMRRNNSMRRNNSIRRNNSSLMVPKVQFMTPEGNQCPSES

[2] = biological target: NLRP3 (NOD-like receptor family, pyrin domain-containing 3; endogenous, mouse BMDMs) (mouse (endogenous in BMDMs)) (UniProt Q8R4B8); test: as above
[3] = biological target: N-terminally FLAG-tagged mouse NLRP3 expressed from pcDNA3 in HEK293T cells (mouse) (UniProt Q8R4B8); test: co-IP; HEK293T cells cotransfected with N-terminally FLAG-tagged mouse NLRP3 and mouse Kir6.1 for 48 h; lysates (50 mM Tris-HCl pH 7.4, 1% NP-40, 150 mM NaCl) incubated with anti-FLAG M2 magnetic beads overnight at 4 °C; detection by immunoblotting
[4] = biological target: T2, ASC, adaptor apoptotic speck protein containing a caspase recruitment domain (endogenous, mouse BMDMs) (mouse (endogenous in BMDMs)) (UniProt Q9EPB4); test: co-IP; endogenous proteins in lysates of BMDMs from WT and Kir6.1 KO mice (ATP-stimulated cells among them); 2 ug of antibodies (ASC, NLRP3 or Kir6.1) overnight at 4 °C, then protein A/G plus agarose beads 2-4 h; lysis buffer 50 mM Tris-HCl pH 7.4, 1% NP-40, 150 mM NaCl; detection by immunoblotting
T2 sequence: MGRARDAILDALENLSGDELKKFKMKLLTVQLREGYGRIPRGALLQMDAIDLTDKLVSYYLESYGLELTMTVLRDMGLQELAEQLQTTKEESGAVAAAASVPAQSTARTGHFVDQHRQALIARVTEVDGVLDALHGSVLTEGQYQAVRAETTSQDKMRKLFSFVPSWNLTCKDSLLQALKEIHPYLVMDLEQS

binding [1]: binds
Molecule: NLRP3 (NOD-like receptor family, pyrin domain-containing 3; endogenous, mouse BMDMs) (from UniProt Q8R4B8 1-1033)

binding [2]: binds
B1: Kir6.1, pore-forming subunit of the K-ATP channel (endogenous, mouse BMDMs) (protein, UniProt P97794 1-424)
chain: MLARKSIIPEEYVLARIAAENLRKPRIRDRLPKARFIAKSGACNLAHKNIREQGRFLQDIFTTLVDLKWRHTLVIFTMSFLCSWLLFAIMWWLVAFAHGDIYAYMEKGTMEKSGLESAVCVTNVRSFTSAFLFSIEVQVTIGFGGRMMTEECPLAITVLILQNIVGLIINAVMLGCIFMKTAQAHRRAETLIFSRHAVIAVRNGKLCFMFRVGDLRKSMIISASVRIQVVKKTTTPEGEVVPIHQQDIPVDNPIESNNIFLVAPLIICHVIDKRSPLYDISATDLANQDLEVIVILEGVVETTGITTQARTSYIAEEIQWGHRFVSIVTEEEGVYSVDYSKFGNTVRVAAPRCSARELDEKPSILIQTLQKSELSHQNSLRKRNSMRRNNSMRRNNSIRRNNSSLMVPKVQFMTPEGNQCPSES

binding [3]: binds
B2: mouse Kir6.1 expressed from pcDNA3.1 in HEK293T cells (protein, UniProt P97794 1-424)
chain: MLARKSIIPEEYVLARIAAENLRKPRIRDRLPKARFIAKSGACNLAHKNIREQGRFLQDIFTTLVDLKWRHTLVIFTMSFLCSWLLFAIMWWLVAFAHGDIYAYMEKGTMEKSGLESAVCVTNVRSFTSAFLFSIEVQVTIGFGGRMMTEECPLAITVLILQNIVGLIINAVMLGCIFMKTAQAHRRAETLIFSRHAVIAVRNGKLCFMFRVGDLRKSMIISASVRIQVVKKTTTPEGEVVPIHQQDIPVDNPIESNNIFLVAPLIICHVIDKRSPLYDISATDLANQDLEVIVILEGVVETTGITTQARTSYIAEEIQWGHRFVSIVTEEEGVYSVDYSKFGNTVRVAAPRCSARELDEKPSILIQTLQKSELSHQNSLRKRNSMRRNNSMRRNNSIRRNNSSLMVPKVQFMTPEGNQCPSES

binding [4]: binds
B3: procaspase-1 (endogenous, mouse BMDMs) (protein, UniProt P29452 1-402)
chain: MADKILRAKRKQFINSVSIGTINGLLDELLEKRVLNQEEMDKIKLANITAMDKARDLCDHVSKKGPQASQIFITYICNEDCYLAGILELQSAPSAETFVATEDSKGGHPSSSETKEEQNKEDGTFPGLTGTLKFCPLEKAQKLWKENPSEIYPIMNTTTRTRLALIICNTEFQHLSPRVGAQVDLREMKLLLEDLGYTVKVKENLTALEMVKEVKEFAACPEHKTSDSTFLVFMSHGIQEGICGTTYSNEVSDILKVDTIFQMMNTLKCPSLKDKPKVIIIQACRGEKQGVVLLKDSVRDSEEDFLTDAIFEDDGIKKAHIEKDFIAFCSSTPDNVSWRHPVRGSLFIESLIKHMKEYAWSCDLEDIFRKVRFSFEQPEFRLQMPTADRVTLTKRFYLFPGH
